From US9962341B2, “Active pharmaceutical ingredient (API) comprising cannabinoids for use in the treatment of cancer” (GW Pharma Limited, priority 2014, dated 2018) come the findings set out here.

The test system of this series is Mia-Pa-Ca-2. Briefly: Cell viability (CellTiter-Blue, 72 h), Mia-Pa-Ca-2 pancreatic cancer cells. The format is cell-based. The note with it: MIA-PA-CA2, 1% FBS. On the procedure: The following cell lines were tested in this example: Lung Cancer (A549, NCI-H460); Pancreatic cancer (PANC1, Mia-Pa-Ca-2); Melanoma (WM115, A375); Ovarian cancer (OVCAR3, SKOV3); Gastric cancer (MKN45, HGC-27); Renal cancer (ACHN) and Bladder Cancer (RT112).
Each tumour cell line was maintained in vitro in RPMI 1640+10% heat inactivated FBS and 2 mM L-glutamine (growth media) at 37° C. in 5% CO2 and humidified conditions. The cells were harvested, washed, re-suspended into growth medium and counted. The cells were re-suspended into assay media (RPMI 1640+5% heat inactivated FBS+ and 2 mM L-glutamine) at 4×10^4 cells/ml (dependent upon cell type) and plated into the middle 240 wells of 384 well tissue culture plates (Corning CellBind, black-wall plates) 25 μl/well aliquots; 50 μl of growth media was aliquoted into the outer wells. There were 3 plates for each cell line.
The plates were incubated overnight at 37° C., in 5% humidified CO2.
The phytocannabinoid test compounds were prepared in 100% DMSO vehicle at a stock concentration of 20 and 40 mM.
Starting with the 20 mM stock in DMSO, this was serially diluted (2 fold) in DMSO in a 96-well plate, to 20 (no dilution), 10, 5, 2.5, 1.25, 0.625, 0.315, 0.157 and […]. Following this, 10 ul of each compound dilution was diluted into 990 ul of 1% (v/v) FBS media in a deep well block making the final concentrations of 200, 100, 50, 25, 12.5, 6.25, 3.125, 1.56 and 0.79 μM (2× final assay concentrations and 1% DMSO).
An equal volume of each cannabinoid in the combination (stock concentration 40 mM) was mixed together to make a stock of 20 mM of each cannabinoid in DMSO. This was serially diluted (2 fold) in DMSO in a 96-well plate, to 20 (no dilution), 10, 5, 2.5, 1.25, 0.625, 0.315, 0.157 and […]. Following this, 10 ul of each combination dilution was diluted into 990 ul of 1% (v/v) FBS media in a deep well block making the final concentrations of 200, 100, 50, 25, 12.5, 6.25, 3.125, 1.56 and 0.79 μM (2× final assay concentrations and 1% DMSO).
Gemcitabine SOC was prepared in 100% DMSO to give a stock concentration of 20 mM. This was then serially diluted (3 fold) in DMSO in a 96-well plate, to 20 (no dilution), 6.6, 2.2, 0.741, 0.247, 0.082, 0.027, 0.009 and 0.003 mM. Following this, 10 ul of each dilution was further diluted into 990 ul of 1% (v/v) FBS media making the final concentrations of 200 (no dilution), 66.66, 22.22, 7.41, 2.47, 0.82, 0.27, 0.09, 0.03 μM (2× final assay concentrations and 1% DMSO).
The plates were incubated for 72 h at 37° C. in 5% humidified CO2. To develop the plates, at 72 h, 10 μl of CellTiter-Blue™ reagent was added to each test/blank well.
The plates were incubated at 37° C., 5% humidified CO2. Fluorescence was measured using a Flex II Station plate reader (570 nm excitation wavelength, 600 nm emission wavelength, 590 nm cut-off) after 3 h.
The phytocannabinoid compounds CBD, CBGA, CBG, CBDA, THCV and THC were tested on a panel of lung (A549, NCI-H460), pancreatic (PANC1, Mia-Pa-Ca-2), melanoma (WM115, A375), ovarian (OVCAR3, SKOV3), gastric (MKN45, HGC-27), renal (ACHN) and bladder (RT112) cancer cell lines according to the protocol for 72 h in media containing 1% FBS.
The IC50 values for each phytocannabinoid and combination of CBD with the other phytocannabinoids was calculated for each cell line. The raw data values expressed in relative fluorescent units were normalised to the vehicle for each individual plate and any reduction in fluorescence indicated a decrease in viability.
This calculation was as described in Example 1 above.
On the technique in general: The colour change of resazurin is a common sign of viable cells or microbes.
In the case of `C=C(C)[C@@H]1CCC(C)=C[C@H]1c1c(O)cc(CCCCC)cc1O` [CBD, Cannabidiol], the “m (shape parameter of dose effect curve)” value was determined as 3.26.

As for `C=C(C)[C@@H]1CCC(C)=C[C@H]1c1c(O)cc(CCCCC)c(C(=O)O)c1O` [CBDA, Cannabidiolic acid], the “m (shape parameter of dose effect curve)” value worked out at 2.03.

Regarding `CCCCCc1cc(O)c(C/C=C(\C)CCC=C(C)C)c(O)c1` [CBG, Cannabigerol], the “m (shape parameter of dose effect curve)” value amounted to 2.87.

For the compound `CCCCCc1cc(O)c(C/C=C(\C)CCC=C(C)C)c(O)c1C(=O)O` [CBGA, Cannabigerolic acid], the “m (shape parameter of dose effect curve)” value is recorded as 4.65.

In the case of `CCCc1cc(O)c2c(c1)OC(C)(C)[C@@H]1CCC(C)=C[C@@H]21` [THCV, Tetrahydrocannabivarin], the “m (shape parameter of dose effect curve)” value is recorded as 4.45.
